# Measured values taken from patent US7390635 (CANCER RESEARCH INSTITUTE OF CONTRA COSTA, dated 2008).
# These are yes or no findings as the source states them, for the method shown. Some entries that bind do so weakly or less than the wild type.
# T1: BA46 antigen of the human milk fat globule (HMFG) (human) (UniProt Q08431)
# T1 sequence (looked up): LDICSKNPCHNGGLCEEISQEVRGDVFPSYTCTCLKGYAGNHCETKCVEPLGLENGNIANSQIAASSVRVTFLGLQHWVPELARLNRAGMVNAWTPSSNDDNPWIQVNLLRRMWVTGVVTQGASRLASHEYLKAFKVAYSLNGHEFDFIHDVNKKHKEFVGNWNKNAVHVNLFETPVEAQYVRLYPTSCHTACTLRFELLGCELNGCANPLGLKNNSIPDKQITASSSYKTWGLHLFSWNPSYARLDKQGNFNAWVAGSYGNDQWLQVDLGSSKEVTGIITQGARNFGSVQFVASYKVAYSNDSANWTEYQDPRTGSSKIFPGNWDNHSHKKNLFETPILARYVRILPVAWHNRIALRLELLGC
# Key:
# [1] = molecular target: T1, BA46 antigen of the human milk fat globule (HMFG) (human); experiment: supernatants assayed on a plate-bound HMFG preparation
# [2] = molecular target: T1, BA46 antigen of the human milk fat globule (HMFG) (human); experiment: competition RIA on plate-bound HMFG; competitor 125I-Mc3
binder,measurement,setting,value
"murine-human chimeric Mc3 antibody (ChMc3) (antibody, V domains shown, also called Chimeric antibody) VH: EVQLQQSGPELVKPGASMKISCEASGYSFTGYTMHWVKQSHGMNLEWIGLINPYNGGTVYNQKFQDKATLTVDKSSGTAYMELLSLTSEDSAVYFCARRWRYTMDYWGQGTSVTVSS VL: DIVMTQSHKFMSTSEGDWVSITCKASQDVSIGVAWYQQKPGQSPKLLIYSASSRYTGVPDRFSGSGSGTDFTFTISSVQAEDLAVYYCQQHYTSPFTFGSGTNLEIK",binding,[1],binds
same,binding,[2],binds
